Experimental data from patent publication US20070276025A1, “Indirubin-Type Compounds, Compositions, and Methods for Their Use” (priority 2003, published 2007).

Each compound was assayed on GSK-3α/β (assay: GSK-3α/β kinase assay (GS-1 peptide, 15 μM ATP)). Details: not given.
Format: biochemical, porcine

Compound	ΔGexp [kcal/mol]
O=C1Nc2ccc(F)cc2C1=C1Nc2ccccc2C1=O [5-Fluoroindirubin, reference compound]	-7.156

Same assay, conditions: Table 7; […], GSK-3

Compound	ΔGexp [kcal/mol]
6-Chloroindirubin [5d]	-6.571
O=C1Nc2ccc([N+](=O)[O-])cc2C1=C1Nc2ccccc2C1=O [5-Nitroindirubin, reference compound]	-7.775
O=C1Nc2cc(I)ccc2/C1=C1/Nc2ccccc2C1=O [5c, 6-Iodoindirubin]	-7.506
O=C1Nc2cc(Cl)c(Cl)cc2/C1=C1/Nc2ccccc2C1=O [5e, 5,6-Dichloroindirubin]	-8.110
Cc1cc2c(cc1Br)NC(=O)C2=C1Nc2ccccc2C1=O [5f, 6-Bromo-5-methylindirubin]	-8.290
O=C1Nc2cc(Br)c([N+](=O)[O-])cc2C1=C1Nc2ccccc2C1=O [5g, 6-Bromo-5-nitroindirubin]	-6.900
O=C1Nc2cc(F)ccc2C1=C1Nc2ccccc2C1=NO [7b, 6-Fluoroindirubin-3′-oxime]	-6.640
O=C1Nc2cc(Cl)ccc2C1=C1Nc2ccccc2C1=NO [7d, 6-Chloroindirubin-3′-oxime]	-8.517
CC(=O)ON=C1C(=C2C(=O)Nc3cc(Br)ccc32)Nc2ccccc21 [8a, 6-Bromoindirubin-3′-acetoxime]	-9.210
CC(=O)O/N=C1/C(=C2/C(=O)Nc3cc(Cl)ccc32)Nc2ccccc21 [8d, 6-Chloroindirubin-3′-acetoxime]	-8.680
CC(=O)ON=C1C(=C2C(=O)Nc3cc(Cl)c(Cl)cc32)Nc2ccccc21 [8e, 5,6Dichloroindirubin-3′-acetoxime]	-10.130
CC(=O)ON=C1C(=C2C(=O)Nc3cc(Br)c(C)cc32)Nc2ccccc21 [8f, 6-Bromo-5-methylindirubin-3′-acetoxime]	-9.570
CC(=O)ON=C1C(=C2C(=O)Nc3cc(Br)c([N+](=O)[O-])cc32)Nc2ccccc21 [8g, 6-Bromo-5-nitroindirubin-3′-acetoxime]	-9.720
CON=C1C(=C2C(=O)Nc3cc(Br)ccc32)Nc2ccccc21 [9a, 6-Bromoindirubin-3′-methoxime]	-8.112
O=C1Nc2ccccc2/C1=C1/Nc2cc(Br)ccc2C1=O [12a, 6′-Bromoindirubin]	-1.514
O=C1Nc2cc(Br)ccc2/C1=C1/Nc2cc(Br)ccc2C1=O [12b, 6,6′-Dibromoindirubin]	-3.101
O=C1Nc2cc(Br)ccc2C1=C1Nc2cc(Br)ccc2C1=NO [13b, 6,6′-dibromo-indirubin-3′-oxime]	-6.725
Cc1ccc2c(c1)/C(=C1/Nc3ccccc3C1=O)C(=O)N2 [compound 15, 5-methyl-indirubin, reference compound]	-7.386
O=C1Nc2ccc(Br)cc2/C1=C1/Nc2ccccc2C1=O [compound 16, 5-bromo-indirubin, reference compound]	-7.505
O=C1Nc2ccc(Cl)cc2/C1=C1/Nc2ccccc2C1=O [compound 17, 5-chloro-indirubin, reference compound]	-7.601
O=C1Nc2ccccc2/C1=C1/Nc2ccc(Br)cc2C1=O [compound 20, 5′-bromo-indirubin, reference compound]	-5.655
O=C1Nc2ccc(Br)cc2/C1=C1/Nc2ccc(Br)cc2C1=O [compound 21, 5,5′-dibromo-indirubin, reference compound]	-5.991
